Reference: PubChem BioAssay AID686943 (Drosophila RNAi Screening Center, 2013)

Aim: 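Knockdowns that increase or decrease active ERK after insulin receptor stimulation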 (primary screen)
Cells: Drosophila S2R+ haemocyte-like cells expressing YFP-tagged ERK (Rolled)
Reagents: long dsRNA against Drosophila genes
Challenge: insulin stimulation versus unstimulated cells; dose and duration not given
Measured: 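Per-plate z-scores of phospho-ERK immunostaining normalised to YFP-tagged ERK, measured with and without insulin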
Scale: replicate 1, z-score of dpERK with insulin and replicate 2, z-score of dpERK with insulin: higher = more active ERK per ERK-YFP after insulin; replicate 1, z-score of dpERK under basal conditions: higher = more basal active ERK per ERK-YFP; replicate 1, z-score of ERK-YFP with insulin: higher = more YFP-tagged ERK signal
In all, the deposit lists about 23,000 reagents; below is an unselected part of those that have a named target and a result. 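Extra replicates exist only for a retested subset of genes; insulin dose and duration not given; both raised and lowered dpERK matter.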 The record does not give: the amount of reagent, the time to read-out.

Target gene | DRSC id | replicate 1, z-score of dpERK with insulin | replicate 2, z-score of dpERK with insulin | replicate 1, z-score of dpERK under basal conditions | replicate 1, z-score of ERK-YFP with insulin
Nedd4 | DRSC11234 | -0.1 | -1.05 | 0.08 | -0.14
Nedd4 | DRSC21548 | 0.29 | 0.17 | 0.23 | 0.04
Or65a | DRSC08808 | 0.4 | 0.54 | 1.87 | 0.47
RhoGAP54D | DRSC06990 | -0.12 | -0.43 | 0.31 | -0.25
CG11030 | DRSC02120 | 1.56 | 1.11 | 2.17 | -1.41
dtn | DRSC17939 | -0.49 | -0.12 | 0.06 | -0.15
Hsl | DRSC06028 | -0.39 | -0.56 | -0.93 | 0.86
ND-B12 | DRSC04060 | -0.17 | 0.06 | 0.68 | 0.8
CG11099 | DRSC06034 | 0.6 | 0 | -1.06 | -0.22
CG10903 | DRSC14281 | -0.32 | -0.57 | -0.99 | 1.06
tsu | DRSC07265 | 0.3 | 1.68 | 0.09 | 0.46
how | DRSC16966 | -2.27 | -3.35 | -1.97 | 1.54

As entered above.
Result for how [DRSC16966] in “replicate 1, z-score of ERK-YFP with insulin”: 1.54
For “replicate 1, z-score of ERK-YFP with insulin”, Nedd4 [DRSC11234] has -0.14

Further results follow:
Target gene | DRSC id | replicate 1, z-score of dpERK with insulin | replicate 2, z-score of dpERK with insulin | replicate 1, z-score of dpERK under basal conditions | replicate 1, z-score of ERK-YFP with insulin
vir | DRSC04377 | -0.91 | -0.39 | 0.7 | 1.04
NTPase | DRSC00761 | -1.12 | 0.09 | 0.03 | 0.43
Hsp60C | DRSC03036 | -0.66 | 0.31 | 0.19 | 0.77
CG10841 | DRSC14271 | 0.25 | 0.21 | -0.43 | 0.49
Or22b | DRSC00765 | 0.06 | -0.48 | -0.3 | 0.54
CG13202 | DRSC06326 | 0.53 | -0.08 | -0.81 | 0.1
Rpn7 | DRSC16841 | -5.2 | -3.36 | -4.5 | 1.39
squ | DRSC01549 | 0.75 | 0.69 | 1.4 | 0.29
Pcyt2 | DRSC08531 | 0.27 | 0.12 | 1.27 | 0.2
CG9849 | DRSC04573 | 0.74 | 0.55 | 2.01 | -0.36
btd | DRSC18747 | -0.37 | -0.48 | -0.05 | 0.94
